The list shows only some results of the screen, not a fair sample: it gathers tests that were run many times, whatever their T/C, doses with no T/C, and many T/C values between a quarter and a half above the control. Other doses and runs of a compound stand elsewhere. T/C is the treated group as % of the vehicle group. Some doses have a count of surviving animals in place of a T/C: the source files T/C as zero there, which appears to mark a toxic dose or a test without result, not a measured value. Some survivor counts are full or nearly so, which does not show that the dose was tolerated: survival well below the control is almost never listed, so the zero probably covers shortened survival too. Counts of survivors are from the toxicity check (mostly the fifth day) where no day follows; animals may have died later. Schedules are NCI's codes, read here as Q, the interval in days (D) or hours (H), X, the number of doses. For survival time, this PubChem deposit counts one and a half times the control or more as active, and values a quarter to a half above the control carry no call in these data; other NCI protocols may use other cut-offs. Some T/C values carry the count of animals alive at the toxicity check (mostly the fifth day); without a count, all were alive then.
Tested on: BDF1 mice, intracerebral B16 melanoma, median survival T/C
Assay: NCI In Vivo Anticancer Drug Screen. Data for tumor model B16 Melanoma (intracerebral) in B6D2F1 (BDF1) mice
Details: T/C endpoint: median survival time, higher T/C = longer survival
Protocol: The antitumor activity of compounds was measured in mice bearing transplantable tumors. Survival or tumor size were measured and the results are expressed as the measurement made in the treated group (T) divided by the measurement made in the vehicle treated control group (C). The tumor model used in this assay is B16 Melanoma (intracerebral) in B6D2F1 (BDF1) mice

[1] = dose: 3.0 mg/kg/injection, schedule: Q01DX009 (ip), vehicle: saline

O=NN(CCCl)C(=O)NC1CCCCC1
T/C (dose: 4.0 mg/kg/injection, schedule: Q01DX009 (ip), vehicle: Klucel (hydroxypropylcellulose) (HPC)): 140 % of control | T/C (dose: 8.0 mg/kg/injection, schedule: Q01DX009 (ip), vehicle: other): 148 % of control [9 of 10 alive] | T/C (dose: 8.0 mg/kg/injection, schedule: Q01DX009 (ip), vehicle: saline with Tween-80): 145 % of control | survivor count (dose: 8.0 mg/kg/injection, schedule: Q04DX003 (ip), vehicle: saline): 6 of 6 | T/C (dose: 13.0 mg/kg/injection, schedule: Q01DX001 (ip), vehicle: Klucel (hydroxypropylcellulose) (HPC)): 137 % of control | T/C (dose: 16.0 mg/kg/injection, schedule: Q04DX003 (ip), vehicle: saline): 129 % of control | T/C (dose: 21.6 mg/kg/injection, schedule: Q01DX001 (ip), vehicle: Klucel (hydroxypropylcellulose) (HPC)): 132 % of control [9 of 10 alive on day 6] | T/C (dose: 21.6 mg/kg/injection, schedule: Q01DX001 (ip), vehicle: other): 134 % of control | T/C (dose: 26.7 mg/kg/injection, schedule: Q01DX001 (ip), vehicle: Klucel (hydroxypropylcellulose) (HPC)): 135 % of control [9 of 10 alive on day 6] | T/C (dose: 32.0 mg/kg/injection, schedule: Q01DX009 (ip), vehicle: saline with Tween-80): 145 % of control | survivor count (dose: 32.0 mg/kg/injection, schedule: Q04DX003 (ip), vehicle: Klucel (hydroxypropylcellulose) (HPC)): 6 of 6 | T/C (dose: 60.0 mg/kg/injection, schedule: Q01DX001 (ip), vehicle: other): 140 % of control | survivor count (dose: 60.0 mg/kg/injection, schedule: Q01DX009 (ip), vehicle: saline): 10 of 10 | survivor count (dose: 64.0 mg/kg/injection, schedule: Q01DX009 (ip), vehicle: Klucel (hydroxypropylcellulose) (HPC)): 10 of 10 | survivor count (dose: 64.0 mg/kg/injection, schedule: Q01DX009 (ip), vehicle: saline with Tween-80): 8 of 10 | survivor count (dose: 75.7 mg/kg/injection, schedule: Q01DX001 (ip), vehicle: other): 10 of 10 | survivor count (dose: 100.0 mg/kg/injection, schedule: Q01DX001 (ip), vehicle: Klucel (hydroxypropylcellulose) (HPC)): 9 of 10 on day 6 | survivor count (dose: 100.0 mg/kg/injection, schedule: Q01DX001 (ip), vehicle: other): 10 of 10

CC(=O)OC1COC(NC(=O)N(CCCl)N=O)C(OC(C)=O)C1OC(C)=O (centres undefined)
T/C [1]: 125 % of control | T/C (dose: 6.0 mg/kg/injection, schedule: Q01DX009 (ip), vehicle: saline): 134 % of control

NC(=O)N(CCCl)N=O
survivor count (dose: 8.0 mg/kg/injection, schedule: Q01DX001 (ip), vehicle: saline + alcohol): 10 of 10 | survivor count (dose: 16.0 mg/kg/injection, schedule: Q01DX001 (ip), vehicle: saline + alcohol): 7 of 10

O=C1C(NCCO)=C(N2CC2)C(=O)C(NCCO)=C1N1CC1
survivor count (dose: 1.5 mg/kg/injection, schedule: Q01DX009 (ip), vehicle: saline): 10 of 10 | survivor count [1]: 10 of 10

CC[C@]1(O)C[C@H]2CN(CCc3c([nH]c4ccccc34)[C@@](C(=O)OC)(c3cc4c(cc3OC)N(C=O)[C@H]3[C@@](O)(C(=O)OC)[C@H](OC(C)=O)[C@]5(CC)C=CCN6CC[C@]43[C@@H]65)C2)C1
survivor count (dose: 0.52 mg/kg/injection, schedule: Q01DX009 (ip), vehicle: saline): 10 of 10

O=NN(CCF)C(=O)N[C@H]1CCCC[C@H]1O
survivor count (dose: 90.0 mg/kg/injection, schedule: Q01DX001 (ip), vehicle: Klucel (hydroxypropylcellulose) (HPC)): 6 of 10 on day 6 | survivor count (dose: 135.0 mg/kg/injection, schedule: Q01DX001 (ip), vehicle: Klucel (hydroxypropylcellulose) (HPC)): 4 of 10 on day 6

COc1cc(NS(C)(=O)=O)ccc1Nc1c2cccc(C)c2nc2c(C)cccc12
survivor count (dose: 100.0 mg/kg/injection, schedule: Q04DX003 (ip), vehicle: Klucel (hydroxypropylcellulose) (HPC)): 6 of 6 | survivor count (dose: 200.0 mg/kg/injection, schedule: Q04DX003 (ip), vehicle: Klucel (hydroxypropylcellulose) (HPC)): 6 of 6

Reference: PubChem BioAssay AID196 (DTP/NCI, 2004)
